Reference: PubChem BioAssay AID602313 (National Center for Advancing Translational Sciences (NCATS), 2012)
The whole screen tested about 390,000 compounds, of which about 760 (0.19%) were called active. The shares of active, inactive and inconclusive entries below differ from those in the screen. Calls follow the shape of the dose curve; as a rule, active = well fitted inhibition curve with a large enough effect; inconclusive = small, poorly fitted or top-dose-only effect; inactive = flat fitted curve, though single readings scatter. Where the call is inconclusive, the potency comes from a doubtful curve fit. Peptide text beside a SMILES is read from it. * marks the point of attachment. Boc = CC(C)(C)OC(=O)*
Potency is read from the fitted curve at half-maximal effect.

Assay: qHTS for Inhibitors of Vif-A3F Interactions: qHTS; also: nearly all actives have a fitted effect of over 65% in size; as to activity, negative = active: % of control where 0% means no effect
Details: HeLa A3F-eYFP + Vif (tagged APOBEC3F with the HIV-1 protein that degrades it), YFP fluorescence increase; series mostly up to 46.1 µM; activity, negative = active: at the top concentration
Procedure, shortened: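 Fluorescence increase (Ex 488/Em 500-530) after overnight compound treatment at 37 deg C flags inhibition of Vif-driven A3F-eYFP loss in stable HeLa A3F-eYFP/Vif cells seeded overnight beforehand.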
With Fc1cnc(N2CCOCC2)nc1N1CCc2ccccc21 the Potency was inconclusive: 5.62 µM [inhibitor, single point]. For Cc1cc(=S)[nH]c2ccccc12, the Potency was inconclusive: 12.6 µM [inhibitor, partial curve, poor fit]. For CN(C)c1cccc(C(=O)Nc2nnc(Cc3ccccc3)s2)c1, the Potency was inconclusive: 20 µM [inhibitor, partial curve, poor fit]. For O=[N+]([O-])c1ccc(NN=Cc2ccco2)nc1, the Potency was inconclusive: 15.8 µM [inhibitor, single point]. With NC(=NCc1ccco1)NC(=O)c1ccc(Cl)cc1 the “activity, negative = active” value was inactive: 0.467%. In the case of COc1ccc(-n2nc(C(=O)NCC(=O)N3CCOCC3)c3ccccc3c2=O)c(OC)c1, the “activity, negative = active” value is reported as inactive: -11.5%. For CC(=O)c1c(C)[nH]c(C(=O)Nc2ccc(Cl)cc2F)c1C, the Potency was inconclusive: 10 µM [inhibitor, partial curve]. With S=C(NNc1ccnc2cc(Cl)ccc12)Nc1ccc(Cl)cc1Cl the Potency was inconclusive: 35.5 µM [inhibitor, single point]. For CS(=O)(=O)N(CC(=O)N1CCN(Cc2ccccc2)CC1)c1ccccc1F, the Potency was inconclusive: 12.6 µM [inhibitor, partial curve]. For Cn1cc([N+](=O)[O-])c(C(=O)Nc2cc(Oc3ccccc3)cc([N+](=O)[O-])c2)n1, the “activity, negative = active” value was inactive: -24.9%. In the case of CC(=O)N1CCc2c(sc(NC(=O)C3CCN(S(=O)(=O)c4cccs4)CC3)c2C(N)=O)C1, the Potency is reported as inconclusive: 20 µM [inhibitor, partial curve, poor fit]. For C[n+]1ccc(C(=O)NCc2ccccc2)cc1, the Potency was inconclusive: 35.5 µM [inhibitor, single point]. With Cc1ccc(-c2sc(-c3ccccc3)nc2CC(=O)Nc2ccccc2F)cc1 the Potency was inconclusive: 15.8 µM [inhibitor, partial curve, poor fit]. With COc1ccc(/C=N/n2cnc3c([nH]c4ccc(F)cc43)c2=O)cc1CN1CCCC1 the Potency was inconclusive: 35.5 µM [inhibitor, single point]. With CCCCNc1c(-c2cccc(-c3ccc(OC)cc3)c2)nc2cc(C)ccn12 the “activity, negative = active” value was inactive: -17.2%. With CSC(=S)N/N=C/c1ccc(Br)cc1 the Potency was inconclusive: 5.62 µM [inhibitor, single point]. For Oc1ccccc1C=NNc1nc2ccccc2s1, the Potency was inconclusive: 3.55 µM [inhibitor, partial curve, poor fit]. With NC(=S)N/N=C/c1ccc(-c2cccc([N+](=O)[O-])c2)o1 the Potency was inconclusive: 14.1 µM [inhibitor, single point]. With Nc1c(C(=O)OCC(=O)Nc2cccc([N+](=O)[O-])c2)[nH]c(=O)[nH]c1=O the “activity, negative = active” value was inactive: 3.7%. In the case of N/C(=N\OC(=O)CCCc1ccccc1)c1ccccn1, the Potency is reported as inconclusive: 22.4 µM [inhibitor, single point]. With Cc1ccc(C)n1-c1ccc(-c2ccn[nH]2)cc1 the Potency was inconclusive: 3.55 µM [inhibitor, partial curve, poor fit]. With CCOC(=O)n1cnc2nc(N)nc(SC)c21 the Potency was inconclusive: 35.5 µM [inhibitor, single point]. With COc1ccc(C=CC(=O)c2ccc(OC)c(OC)c2)cc1O the “activity, negative = active” value was inactive: -4.74%. In the case of CC1(C)CC(NC(=O)c2ccc(Cl)cc2)CC(C)(C)N1, the Potency is reported as inconclusive: 0.355 µM [inhibitor, partial curve, poor fit]. For CCCCCCNC(=O)O[C@H]1CN(C(=O)OC(C)C)N(C(=O)OC(C)C)[C@@H]2CN(S(=O)(=O)c3ccc(C)cc3)C[C@]12O, the Potency was inconclusive: 25.1 µM [inhibitor, single point]. In the case of CN1C(=O)N(C)c2ccc(C=O)c3cccc1c23, the Potency is reported as active: 11.2 µM. With CCN(CC)CC(C)CNC(=O)c1cc(-c2ccc(Br)s2)nc2ccccc12 (stereo unspecified) the Potency was inconclusive: 22.4 µM [inhibitor, single point]. For COc1ccccc1CNC(=S)NCCc1ccccc1, the Potency was inconclusive: 35.5 µM [inhibitor, single point]. In the case of CCOC(=O)/C(=C\c1cccnc1)C(=O)c1cc(C(C)=O)c(Nc2ccccc2)s1, the Potency is reported as inconclusive: 35.5 µM [inhibitor, single point]. In the case of CC1CCCCN1Cc1c(O)ccc2c(=O)c(-c3nc4ccccc4s3)coc12 (stereo unspecified), the Potency is reported as inconclusive: 35.5 µM [inhibitor, single point]. With COc1ccc(/C=N/NC(=O)CCC(=O)Nc2ccc(Br)cc2)c(OC)c1 the Potency was inconclusive: 35.5 µM [inhibitor, single point]. With CSc1ccccc1NC(=O)CN(C)C(=O)COc1cccc2cccnc12 the Potency was inconclusive: 4.47 µM [inhibitor, single point]. For COc1ccccc1-n1ncc2c(=O)[nH]c(SCC(=O)Nc3ccc(Cl)cc3)nc21, the “activity, negative = active” value was inactive: 0.541%. In the case of C(=N\NC(=Nc1ccccc1)c1ccccn1)/c1ccccn1, the Potency is reported as inconclusive: 35.5 µM [inhibitor, single point]. For Cc1ccc(C(=O)NN2C(=O)/C(=C/c3cn(C)c4ccccc34)SC2=S)cc1, the Potency was inconclusive: 10 µM [inhibitor, partial curve, poor fit]. For O=C(NC(=S)NC12CC3CC(CC(C3)C1)C2)c1ccc(F)cc1, the Potency was inconclusive: 20 µM [inhibitor, partial curve, poor fit]. In the case of COc1ccc2[nH]cc(CCNS(=O)(=O)c3ccc(C)cc3)c2c1, the Potency is reported as inconclusive: 6.31 µM [inhibitor, single point]. In the case of Oc1ccc(/C=N/NC(=S)N2CCOCC2)cc1, the Potency is reported as inconclusive: 2.51 µM [inhibitor, full curve, poor fit]. In the case of COc1ccccc1NC(=O)C1CCN(C(=O)c2sc3nc[nH]c(=O)c3c2C)CC1, the “activity, negative = active” value is reported as inactive: 3.73%. With CCCC12CN3CC(CCC)(CN(C1)C3c1ccccc1)C2=O (stereo unspecified) the “activity, negative = active” value was inactive: -8.67%. For C=CCn1c(SCc2c(C)noc2C)nc2cc(C(=O)O)ccc2c1=O, the Potency was inconclusive: 25.1 µM [inhibitor, single point]. For O=C(NCc1ccc(F)cc1)c1ccc(Nc2nc3ccccc3n3nnnc23)cc1, the Potency was inconclusive: 35.5 µM [inhibitor, single point]. For COc1ccc(N2CC(C(=O)N3CCN(Cc4ccc5c(c4)OCO5)CC3)CC2=O)cc1 (stereo unspecified), the Potency was inconclusive: 6.31 µM [inhibitor, single point]. In the case of O=C(NCc1cccnc1)/C(=C/c1ccc(-c2cccc(Cl)c2)o1)S(=O)(=O)c1ccccc1, the “activity, negative = active” value is reported as inactive: -4.25%. In the case of CCOc1ccccc1Nc1nnc(-c2cc3cc(OC)ccc3oc2=O)s1, the Potency is reported as active: 7.08 µM. For O=C(CC(SCCO)c1ccc(F)cc1)c1ccco1 (stereo unspecified), the “activity, negative = active” value was inactive: -3.2%. For CC(C)(C)Cc1c(-c2ccc(Cl)cc2)nc2ccc(Br)cn12, the Potency was inconclusive: 25.1 µM [inhibitor, single point]. For O=C(c1ccccc1)C(CN1CCCCC1)c1ccccc1 (stereo unspecified), the “activity, negative = active” value was inactive: -6.78%. For O=C(CN1c2cccc3cccc(c23)S1(=O)=O)Nc1ccc(S(=O)(=O)N2CCOCC2)cc1, the Potency was active: 22.4 µM. With COc1cccc(CSc2nc3n(n2)C(CC(C)C)C(C(=O)Nc2ccccc2OC)=C(C)N3)c1 (stereo unspecified) the Potency was inconclusive: 22.4 µM [inhibitor, single point]. For COC(=O)c1ccc(COc2ccccc2OC)o1, the “activity, negative = active” value was inactive: -2.04%. In the case of Cc1c(NC(=S)NC(=O)c2ccc(-c3ccc(Cl)cc3)o2)cccc1C(=O)O, the “activity, negative = active” value is reported as inactive: 0.204%. For CC(OC(=O)/C=C/c1ccc2ccccc2n1)C(=O)Nc1ccc(S(N)(=O)=O)cc1 (stereo unspecified), the Potency was inconclusive: 25.1 µM [inhibitor, partial curve, poor fit]. In the case of Cc1ccc(NC2=C(Cl)C(=O)N(C3CCCCC3)C2=O)cc1, the Potency is reported as inconclusive: 12.6 µM [inhibitor, partial curve]. In the case of CCc1ccc[n+](-c2[nH]c(=O)sc2/C=N/N=C(\[O-])c2ccncc2)c1, the Potency is reported as inconclusive: 35.5 µM [inhibitor, partial curve, poor fit]. With Cc1cc(NC(=O)CSc2nc3c(cc2C#N)CCCCC3)no1 the Potency was inconclusive: 7.08 µM [inhibitor, partial curve, poor fit]. With CC(C)C(NC(=O)OC(C)(C)C)C(=O)N1CCCC1C(=O)NC(Cc1ccccc1)C(N)=O (stereo not drawn) (Boc-Val-Pro-Phe-NH2; configuration not given here) the Potency was inconclusive: 5.62 µM [inhibitor, single point]. With O=C1C(Cl)=C(Oc2ccccc2)C(=O)c2ccccc21 the Potency was active: 10 µM. For COc1ccccc1N1C(=O)N(C(C)=O)C2C1Nc1ccccc1N2C (stereo unspecified), the Potency was inconclusive: 15.8 µM [inhibitor, partial curve, poor fit]. With Cc1c2ccccc2nc2c(F)c(NCCO)c(F)c(F)c12 the Potency was inconclusive: 22.4 µM [inhibitor, partial curve, poor fit]. With CCN(Cc1ccccc1)C(=O)CCc1nc(-c2ccc(C)cc2)no1 the Potency was inconclusive: 6.31 µM [inhibitor, single point]. For CC(=O)c1ccc(N2CCN(C(=O)CCCn3c(=S)[nH]c4cc5c(cc4c3=O)OCO5)CC2)cc1, the Potency was inconclusive: 12.6 µM [inhibitor, single point]. In the case of CN(C)c1ccc(/C=C2\CCC/C(=C\c3ccccc3)C2=O)cc1, the Potency is reported as inconclusive: 35.5 µM [inhibitor, single point]. With CN(CC(=O)Nc1ccccc1Cl)C(=O)Cn1cc(C(F)(F)F)ccc1=O the Potency was inconclusive: 6.31 µM [inhibitor, single point]. In the case of CCc1c(C)sc(NC(=O)c2noc(C)c2[N+](=O)[O-])c1C#N, the “activity, negative = active” value is reported as inactive: -1.28%. With O=C(O)C1Cc2ccccc2CN1C(=O)CCl (stereo unspecified) the Potency was inconclusive: 3.16 µM [inhibitor, single point].
